# Laboratory results reported in PubChem BioAssay AID330 (DTP/NCI, 2004).
# The list does not hold the whole screen: it is rich in T/C values a quarter to a half above the control, in often repeated tests (any T/C) and in doses without a T/C. Further doses and runs are listed elsewhere. T/C gives the treated animals as a percentage of the vehicle group. Some entries give survivors of the animals treated and no T/C: the source files T/C as zero there, which appears to mark a toxic dose or a test without result, not a measured value. Some doses without a T/C left all or most animals alive at the check, yet need not have been tolerated: survival well below the control is almost never listed, so the zero probably covers shortened survival too. Counts of survivors are from the toxicity check (mostly the fifth day) where no day follows; animals may have died later. Schedules are NCI's codes, taken here to give the interval after Q, in days (D) or hours (H), and the number of doses after X. Some doses were run more than once; the results are listed from low to high. Where survival is the endpoint, the PubChem record calls one and a half times the control and up active, and a quarter to a half above the control has no call in these data; cut-offs in other NCI protocols can differ. Some T/C values carry the count of animals alive at the toxicity check (mostly the fifth day); where none is given, no animal had died by that day.
# Tested on: P388 leukemia ip, CD2F1 mice, survival T/C
# Assay: NCI In Vivo Anticancer Drug Screen. Data for tumor model P388 Leukemia (intraperitoneal) in CD2F1 (CDF1) mice
# Settings: T/C endpoint: median survival time, higher T/C = longer survival
# [1] = dose: 100.0 mg/kg/injection, schedule: Q01DX005 (ip), vehicle: saline with Tween-80
# [2] = dose: 200.0 mg/kg/injection, schedule: Q01DX005 (ip), vehicle: saline with Tween-80
# [3] = dose: 200.0 mg/kg/injection, schedule: Q01DX009 (ip), vehicle: saline
# [4] = dose: 120.0 mg/kg/injection, schedule: Q01DX005 (ip), vehicle: Klucel (hydroxypropylcellulose) (HPC)
# [5] = dose: 50.0 mg/kg/injection, schedule: Q01DX009 (ip), vehicle: saline with Tween-80
# [6] = dose: 100.0 mg/kg/injection, schedule: Q01DX009 (ip), vehicle: saline with Tween-80
# [7] = dose: 200.0 mg/kg/injection, schedule: Q01DX009 (ip), vehicle: saline with Tween-80
compound,measurement,setting,value
O=C(NCCCCCCCCCCNC(=O)C12CC3CC(CC(C3)C1)C2)C12CC3CC(CC(C3)C1)C2,survivor count,[1],6 of 6
same,survivor count,[2],6 of 6
COc1cc(C)c(C(=O)Oc2cc(C)c(C(=O)O)c(O)c2)c(O)c1,survivor count,[3],3 of 3
CSC1=CC(=NCc2ccccc2)CC(C)(C)S1,survivor count,[4],2 of 6
same,survivor count,"dose: 240.0 mg/kg/injection, schedule: Q01DX005 (ip), vehicle: Klucel (hydroxypropylcellulose) (HPC)",0 of 6
O=C(/C=C/c1ccccc1O)/C=C/c1ccccc1O,T/C,"dose: 12.5 mg/kg/injection, schedule: Q01DX009 (ip), vehicle: saline with Tween-80",125 % of control
same,survivor count,[5],4 of 6
Cl/N=C1C=C/C(=N\Cl)C=C/1Cl,survivor count,"dose: 50.0 mg/kg/injection, schedule: Q01DX005 (ip), vehicle: saline with Tween-80",5 of 5
same,survivor count,[1],0 of 5
same,survivor count,[2],0 of 5
CCN(CC)C/C(C)=C(/c1ccccc1)c1ccccc1S(N)(=O)=O,survivor count,"dose: 400.0 mg/kg/injection, schedule: Q01DX001 (ip), vehicle: Klucel (hydroxypropylcellulose) (HPC)",0 of 6
O=S(=O)(O)O.[NH-]CC([NH-])c1ccccc1.[Pt+2] (stereo not given),survivor count,"dose: 25.0 mg/kg/injection, schedule: Q04DX002 (ip), vehicle: saline with Tween-80",0 of 6
CCCCCCCCCCCCCC[N+]1(CC)CCCC1,survivor count,"dose: 25.0 mg/kg/injection, schedule: Q04DX002 (ip), vehicle: saline",1 of 6
same,survivor count,"dose: 100.0 mg/kg/injection, schedule: Q04DX002 (ip), vehicle: saline",0 of 6
same,survivor count,"dose: 200.0 mg/kg/injection, schedule: Q04DX002 (ip), vehicle: saline",0 of 6
same,survivor count,"dose: 400.0 mg/kg/injection, schedule: Q04DX002 (ip), vehicle: saline",0 of 6
CCOC(=O)N1C(=O)C2C3C=CC(C2C1=O)C1C2C(=O)N(C(=O)OCC)C(=O)C2C31 (stereo not given),T/C,"dose: 50.0 mg/kg/injection, schedule: Q01DX009 (ip), vehicle: Klucel (hydroxypropylcellulose) (HPC)",135 % of control
same,T/C,"dose: 100.0 mg/kg/injection, schedule: Q01DX009 (ip), vehicle: Klucel (hydroxypropylcellulose) (HPC)",145 % of control
same,survivor count,"dose: 200.0 mg/kg/injection, schedule: Q01DX009 (ip), vehicle: Klucel (hydroxypropylcellulose) (HPC)",0 of 6 and 6 of 6
CC(C)CCC1=CC(=O)C(CCC(C)C)=CC1=O,survivor count,"dose: 25.0 mg/kg/injection, schedule: Q01DX009 (ip), vehicle: saline with Tween-80",6 of 6
same,survivor count,[5],3 of 6
same,survivor count,[6],1 of 6
same,survivor count,[7],0 of 6
COc1ccc(Cc2c3cc(OC)c(OC)cc3cc[n+]2CC(=O)c2ccc(F)cc2)cc1OC,survivor count,"dose: 100.0 mg/kg/injection, schedule: Q01DX005 (ip), vehicle: Klucel (hydroxypropylcellulose) (HPC)",0 of 5
same,survivor count,"dose: 200.0 mg/kg/injection, schedule: Q01DX005 (ip), vehicle: Klucel (hydroxypropylcellulose) (HPC)",0 of 5
COc1ccc(-c2n(O)c(C)c(C)[n+]2[O-])cc1,survivor count,[6],4 of 6
same,survivor count,[7],0 of 6
Cc1ncc(CNC(=O)N(CCCl)N=O)c(N)n1,survivor count,"dose: 50.0 mg/kg/injection, schedule: Q01DX001 (ip), vehicle: saline",6 of 10
COc1cc2c(cc1I)-c1c(cc(OC)c(OC)c1OC)CC[C@@H]2NC(C)=O,T/C,"dose: 132.0 mg/kg/injection, schedule: Q01DX009 (ip), vehicle: saline with Tween-80",145 % of control
same,T/C,"dose: 200.0 mg/kg/injection, schedule: Q01DX009 (ip), vehicle: saline sonified",145 % of control
same,survivor count,[7],4 of 6
same,survivor count,"dose: 300.0 mg/kg/injection, schedule: Q01DX009 (ip), vehicle: saline with Tween-80",4 of 6
same,T/C,"dose: 400.0 mg/kg/injection, schedule: Q01DX009 (ip), vehicle: saline sonified",131 % of control [5 of 6 alive]
COC1C(O)C(CO)OC1n1ccc(NC(=O)c2ccccc2)nc1=O (stereo not given),survivor count,[4],6 of 6
CCNC(=O)OOC(C)(C)C,survivor count,[3],0 of 6
